Data source: PubChem BioAssay AID1259254 (NCATS, 2017)

- Test: 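Gene knock-downs that lead to re-replication, shown by excess G2 DNA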 (primary screen)
- Cells: human HCT116 colorectal cancer cells
- Reagent: single siRNA against human genes
- Duration: 3 days
- Measurement: 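Imaged Hoechst DNA stain sorts each cell into a cycle phase by DNA amount; per plate, G2 fraction set to 0% for non-targeting and 100% for GMNN siRNA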
- Reading the numbers: G2 robust z-score: higher = more G2 cells, more excess DNA replication
- Rule for the call: 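Active siRNAs have a G2 robust z of 5 or more median absolute deviations over the median, which in these data means about 38% or higher of GMNN control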
The whole screen tested about 59,000 reagents; shown is an unselected part. About 1,550 of all reagents (2.6%) count as active. 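G2 share is only a proxy for re-replication; each gene was hit by three separate siRNAs, and active genes were retested.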 The numbers tell different reagents against one gene apart. Not all columns of the deposit are shown. No sequences are given here. Not given: the amount of reagent.

G2 robust z-score, by target and reagent
RNF121: #1 3.45 inactive; #2 0.589 inactive; #3 0.657 inactive
NR2E1: #1 0.245 inactive; #2 -0.374 inactive; #3 -0.568 inactive
SLC44A4: #1 -0.451 inactive; #2 -0.248 inactive; #3 0.09 inactive
CLCA3P: #1 5.49 active; #2 1.3 inactive; #3 -0.512 inactive
LETMD1: #1 -1.17 inactive; #2 0.718 inactive; #3 0.881 inactive
PRRG1: #1 1.4 inactive; #2 0.639 inactive; #3 -0.341 inactive
HOXA7: #1 -0.589 inactive; #2 -0.813 inactive; #3 11.9 active
GPS2: #1 -1.07 inactive; #2 2.51 inactive; #3 6.08 active
TSLIG2: #1 -0.234 inactive; #2 -1.25 inactive; #3 -0.642 inactive
CC2D1B: #1 0.0431 inactive; #2 -0.682 inactive; #3 -0.593 inactive

Active calls, among the entries above:
G2 robust z-score, by target and reagent
CLCA3P: #1 5.49 active
HOXA7: #3 11.9 active
GPS2: #3 6.08 active
